From the supplement of paper PMC4604168 (melanoma cell lines)
The list shows a part of the results. Single values are uncertain, as repeats are few or missing.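 Cells were imaged in 1,536-well plates, and nuclei stained with an antibody against cleaved PARP were counted against all DNA-stained nuclei to give the apoptosis fraction. Screening doses were chosen to leave most cells alive, and resting and induced cleaved-PARP levels differ strongly between cell lines.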

Legend:
Assay in all cases: cleaved PARP positive nuclei fraction relative to DMSO control; melanoma cells; higher = more apoptosis
Details in all cases: library dose: low library concentration; 72 h
WM115 = tested on: WM115
WM1716 = tested on: WM1716
WM1745 = tested on: WM1745
WM3526 = tested on: WM3526
WM3619 = tested on: WM3619
WM451Lu = tested on: WM451Lu

| SMILES | cleaved PARP positive nuclei fraction (WM115) [%] | cleaved PARP positive nuclei fraction (WM1716) [%] | cleaved PARP positive nuclei fraction (WM1745) [%] | cleaved PARP positive nuclei fraction (WM3526) [%] | cleaved PARP positive nuclei fraction (WM3619) [%] | cleaved PARP positive nuclei fraction (WM451Lu) [%] |
| --- | --- | --- | --- | --- | --- | --- |
| NC1(c2ccc(-c3nc4ccn5c(=O)[nH]nc5c4cc3-c3ccccc3)cc2)CCC1 + NCC(=O)Nc1ccc(-n2nc(C(F)(F)F)cc2-c2ccc3c(ccc4ccccc43)c2)cc1 [OSU03012] (first compound 0.4 µM, partner dose 1 µM) | 228 | 75 | 102 | 96.8 | 89.1 | 48 |
| CCN(CC)CCNC(=O)c1c(C)[nH]c(/C=C2\C(=O)Nc3ccc(F)cc32)c1C [sunitinib] + CC(C)(C)c1cnc(CSc2cnc(NC(=O)C3CCNCC3)s2)o1 [SNS-032] (first compound 0.4 µM, partner dose 0.01 µM) | 160 | 70.5 | 129 | 32.7 | 106 | 156 |
| C[C@@H](N)c1ccc(C(=O)Nc2ccnc3[nH]ccc23)cc1 + CNC(=O)c1cc(Oc2ccc(NC(=O)Nc3ccc(Cl)c(C(F)(F)F)c3)cc2)ccn1 [sorafenib] (first compound 0.4 µM, partner dose 0.4 µM) | 111 | 89.3 | 259 | 335 | 95.9 | 42.6 |
| C[C@]1(O)C[C@@H](c2nc(-c3ccc4ccc(-c5ccccc5)nc4c3)c3c(N)nccn32)C1 + CCCCCCCCCCCC1=C(O)C(=O)C=C(O)C1=O [Embelin] (first compound 0.4 µM, partner dose 1.2 µM) | 55.8 | 138 | 116 | 90.6 | 78 | 227 |
| CS(=O)(=O)c1ccc(C(=O)Nc2ccc(Cl)c(-c3ccccn3)c2)c(Cl)c1 [vismodegib] + CN(c1ncccc1CNc1nc(Nc2ccc3c(c2)CC(=O)N3)ncc1C(F)(F)F)S(C)(=O)=O [PF562271] (first compound 1 µM, partner dose 0.08 µM) | 122 | 216 | 353 | 38.9 | 87.7 | 127 |
| COc1ccc(C2=N[C@@H](c3ccc(Cl)cc3)[C@@H](c3ccc(Cl)cc3)N2C(=O)N2CCNC(=O)C2)c(OC(C)C)c1 [Nutlin-3] + NC(=O)Nc1cc(-c2cccc(F)c2)sc1C(=O)N[C@H]1CCCNC1 [AZD7762] (first compound 0.1 µM, partner dose 0.02 µM) | 120 | 125 | 103 | 35.4 | 138 | 173 |
| C[C@@H](N)c1ccc(C(=O)Nc2ccnc3[nH]ccc23)cc1 + COc1ccc2c(c1)CCC1C2CCC2(C)C(NCCCCCCN3C(=O)C=CC3=O)CCC12 [U73122] (first compound 0.4 µM, partner dose 0.4 µM) | 14.6 | 60 | 108 | 60.7 | 137 | 66.1 |
| CCCCCCCCc1ccc(CCC(N)(CO)CO)cc1 [fingolimod] + CC(=O)c1c(C)c2cnc(Nc3ccc(N4CCNCC4)cn3)nc2n(C2CCCC2)c1=O [palbociclib] (first compound 2 µM, partner dose 0.04 µM) | 127 | 104 | 111 | 227 | 126 | 332 |
| CCN(CC)CCNC(=O)c1c(C)[nH]c(/C=C2\C(=O)Nc3ccc(F)cc32)c1C [sunitinib] + CC(C)C[C@H](NC(=O)[C@H](Cc1ccccc1)NC(=O)c1cnccn1)B(O)O [Bortezomib] (first compound 0.4 µM, partner dose 0.001 µM) | 67.5 | 97.6 | 98 | 50.5 | 183 | 119 |
| C[C@]1(O)C[C@@H](c2nc(-c3ccc4ccc(-c5ccccc5)nc4c3)c3c(N)nccn32)C1 + COc1cc2c(Oc3ccc4[nH]c(C)cc4c3F)ncnc2cc1OCCCN1CCCC1 [cediranib] (first compound 0.4 µM, partner dose 0.4 µM) | 19.6 | 112 | 121 | 34.1 | 84.1 | 99.2 |
| CCN(CC)CCNC(=O)c1c(C)[nH]c(/C=C2\C(=O)Nc3ccc(F)cc32)c1C [sunitinib] + Cc1cc([N+](=O)[O-])ccc1NS(=O)(=O)c1cc(Cl)ccc1Cl [FH535] (first compound 0.4 µM, partner dose 1 µM) | 136 | 66.1 | 99.3 | 91.8 | 89.3 | 25 |
| CS(=O)(=O)c1ccc(C(=O)Nc2ccc(Cl)c(-c3ccccn3)c2)c(Cl)c1 [vismodegib] + Oc1nc(-c2ccc(C(F)(F)F)cc2)nc2c1CSCC2 [XAV939] (first compound 1 µM, partner dose 2 µM) | 78.7 | 172 | 106 | 131 | 97.6 | 141 |
| Cn1sc(=O)n(Cc2ccccc2)c1=O + O=C(O)c1ccc(-c2c[nH]c3ncc(-c4ccccc4)cc23)cc1C1CCCC1 [GSK650394] (first compound 0.4 µM, partner dose 0.16 µM) | 114 | 41.5 | 102 | 75.9 | 104 | 71.4 |
| NC(=O)c1ccc(N(C(N)=O)c2c(F)cccc2F)nc1-c1ccc(F)cc1F + C[C@@H](Oc1cc(-c2cnn(C3CCNCC3)c2)cnc1N)c1c(Cl)ccc(F)c1Cl [Crizotinib] (first compound 0.4 µM, partner dose 0.2 µM) | 49.5 | 32.7 | 87.9 | 46.2 | 97.7 | 89.7 |
| NC1(c2ccc(-c3nc4ccn5c(=O)[nH]nc5c4cc3-c3ccccc3)cc2)CCC1 + CC(=O)c1c(C)c2cnc(Nc3ccc(N4CCNCC4)cn3)nc2n(C2CCCC2)c1=O [palbociclib] (first compound 0.4 µM, partner dose 0.04 µM) | 179 | 120 | 124 | 36.3 | 265 | 56.7 |
| Cn1cnc2c(F)c(Nc3ccc(Br)cc3Cl)c(C(=O)NOCCO)cc21 [selumetinib] + CN(c1ncccc1CNc1nc(Nc2ccc3c(c2)CC(=O)N3)ncc1C(F)(F)F)S(C)(=O)=O [PF562271] (first compound 0.015 µM, partner dose 0.08 µM) | 253 | 147 | 109 | 55.9 | 101 | 52.8 |
| CS(=O)(=O)c1ccc(C(=O)Nc2ccc(Cl)c(-c3ccccn3)c2)c(Cl)c1 [vismodegib] + Cc1nc(Nc2ncc(C(=O)Nc3c(C)cccc3Cl)s2)cc(N2CCN(CCO)CC2)n1 [dasatanib] (first compound 1 µM, partner dose 0.004 µM) | 129 | 204 | 123 | 82.9 | 102 | 500 |
| CS(=O)(=O)c1ccc(C(=O)Nc2ccc(Cl)c(-c3ccccn3)c2)c(Cl)c1 [vismodegib] + CC1(C)NC(=O)N(c2ccc([N+](=O)[O-])c(C(F)(F)F)c2)C1=O [nilutamide] (first compound 1 µM, partner dose 1 µM) | 131 | 80.8 | 104 | 50 | 89.4 | 103 |
| CS(=O)(=O)c1ccc(C(=O)Nc2ccc(Cl)c(-c3ccccn3)c2)c(Cl)c1 [vismodegib] + Cc1ccc(NC(=O)c2cccc(N(C)C)c2)cc1NC(=O)c1ccc(O)cc1 [ZM336372] (first compound 1 µM, partner dose 2 µM) | 63.3 | 93.5 | 101 | 111 | 103 | 89.9 |
| CCCCCCCCc1ccc(CCC(N)(CO)CO)cc1 [fingolimod] + O=C(O)C(=O)Nc1sc2c(c1C(=O)O)CCNC2 [TCS401] (first compound 2 µM, partner dose 1.66667 µM) | 199 | 118 | 107 | 92 | 104 | 66.7 |
| CN(c1ncccc1CNc1nc(Nc2ccc3c(c2)CC(=O)N3)ncc1C(F)(F)F)S(C)(=O)=O + CCCCCCCCCCCC1=C(O)C(=O)C=C(O)C1=O [Embelin] (first compound 0.08 µM, partner dose 1.2 µM) | 119 | 37.6 | 116 | 75.9 | 93.9 | 89.1 |
| CCN(CC)CCNC(=O)c1c(C)[nH]c(/C=C2\C(=O)Nc3ccc(F)cc32)c1C [sunitinib] + COCC[n+]1c2c(n(Cc3cnccn3)c1C)C(=O)c1ccccc1C2=O [YM155] (first compound 0.4 µM, partner dose 0.0004 µM) | 158 | 117 | 97 | 111 | 88 | 159 |
| C[C@]1(O)C[C@@H](c2nc(-c3ccc4ccc(-c5ccccc5)nc4c3)c3c(N)nccn32)C1 + NC(=O)Nc1cc(-c2cccc(F)c2)sc1C(=O)N[C@H]1CCCNC1 [AZD7762] (first compound 0.4 µM, partner dose 0.02 µM) | 87.6 | 62.2 | 134 | 121 | 200 | 327 |
| CN(c1ncccc1CNc1nc(Nc2ccc3c(c2)CC(=O)N3)ncc1C(F)(F)F)S(C)(=O)=O + CC(C)C[C@H](NC(=O)[C@H](Cc1ccccc1)NC(=O)c1cnccn1)B(O)O [Bortezomib] (first compound 0.08 µM, partner dose 0.001 µM) | 189 | 323 | 141 | 48.5 | 426 | 54.9 |
| NC1(c2ccc(-c3nc4ccn5c(=O)[nH]nc5c4cc3-c3ccccc3)cc2)CCC1 + COc1ccc(Cl)c(Nc2nc3ccccc3nc2NS(=O)(=O)c2cccc(NC(=O)C(C)(C)N)c2)c1 [XL147] (first compound 0.4 µM, partner dose 0.8 µM) | 187 | 154 | 103 | 52.1 | 97.1 | 96 |

Part of the list above, with tabs.
SMILES	cleaved PARP positive nuclei fraction (WM115) [%]	cleaved PARP positive nuclei fraction (WM1716) [%]	cleaved PARP positive nuclei fraction (WM1745) [%]	cleaved PARP positive nuclei fraction (WM3526) [%]	cleaved PARP positive nuclei fraction (WM3619) [%]	cleaved PARP positive nuclei fraction (WM451Lu) [%]
CS(=O)(=O)c1ccc(C(=O)Nc2ccc(Cl)c(-c3ccccn3)c2)c(Cl)c1 [vismodegib] + Cc1ccc(NC(=O)c2cccc(N(C)C)c2)cc1NC(=O)c1ccc(O)cc1 [ZM336372] (first compound 1 µM, partner dose 2 µM)	63.3	93.5	101	111	103	89.9
CN(c1ncccc1CNc1nc(Nc2ccc3c(c2)CC(=O)N3)ncc1C(F)(F)F)S(C)(=O)=O + CC(C)C[C@H](NC(=O)[C@H](Cc1ccccc1)NC(=O)c1cnccn1)B(O)O [Bortezomib] (first compound 0.08 µM, partner dose 0.001 µM)	189	323	141	48.5	426	54.9
